PubChem BioAssay AID652272, Drosophila RNAi Screening Center | 2013

Aim: 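Genome-wide knock-down search for components of Hedgehog signalling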 (primary screen)
Cell system: Drosophila clone 8 (Cl8) cells
Knock-down reagent: long dsRNA against Drosophila genes
Read-out: 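Plate reader light from a firefly reporter under a ptc promoter fragment that responds to Hedgehog, with Renilla light as transfection reference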
Reading the numbers: firefly Hh reporter signal: higher = more ptc reporter light; Renilla reference signal: higher = more Renilla control light
Rule for the call: 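Hit when the z-score averaged over two replicates is under -2 or over +3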
Calls: active = hit: reporter lowered or raised; inactive = not a hit
In all, the deposit lists about 21,000 reagents; this is a random part of those that have a named target and a result. Of all reagents, 503 (2.4%) got an active call. 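Raw plate light values, not normalised; calls rest on replicate z-scores that were not deposited; hits include reporter decreases as well as increases.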 A number with no mark means an inactive call. Names joined by + are all predicted targets of the reagent. Not given: the amount of reagent, the time to read-out.

For CG32121 [DRSC09265], what does the deposit list?
firefly Hh reporter signal, replicate 1: 1.99e5; Renilla reference signal, replicate 1: 3912

What is on record for Aprt [DRSC08139]?
firefly Hh reporter signal, replicate 1: 87824; firefly Hh reporter signal, replicate 2: 27399; Renilla reference signal, replicate 1: 2700; Renilla reference signal, replicate 2: 2538

What did the screen give for CG4294 [DRSC04460]?
firefly Hh reporter signal, replicate 1: 91920; firefly Hh reporter signal, replicate 2: 39909; Renilla reference signal, replicate 1: 3574; Renilla reference signal, replicate 2: 1632

What did the screen give for CR43087 + CR43086 + CG34002 [DRSC11953]?
firefly Hh reporter signal, replicate 1: 2.75e5; Renilla reference signal, replicate 1: 4736

For Alp5 [DRSC14269], what was measured?
firefly Hh reporter signal, replicate 1: 1.13e5; firefly Hh reporter signal, replicate 2: 1.01e5; Renilla reference signal, replicate 1: 4537; Renilla reference signal, replicate 2: 3876

What is on record for CG14756 [DRSC06491]?
firefly Hh reporter signal, replicate 1: 96786; firefly Hh reporter signal, replicate 2: 37789; Renilla reference signal, replicate 1: 2477; Renilla reference signal, replicate 2: 3467

What did the screen give for CG11474 [DRSC04112]?
firefly Hh reporter signal, replicate 1: 1.16e5; firefly Hh reporter signal, replicate 2: 1.24e5; Renilla reference signal, replicate 1: 4713; Renilla reference signal, replicate 2: 4839

What did the screen give for Atg8a [DRSC18024]?
firefly Hh reporter signal, replicate 1: 1.00e5; firefly Hh reporter signal, replicate 2: 3.13e5; Renilla reference signal, replicate 1: 2310; Renilla reference signal, replicate 2: 11100

With Fit1 [DRSC08450], what was measured?
firefly Hh reporter signal, replicate 1: 92218; firefly Hh reporter signal, replicate 2: 46009; Renilla reference signal, replicate 1: 4072; Renilla reference signal, replicate 2: 2333

With CG13728 [DRSC10056], how do the results read?
firefly Hh reporter signal, replicate 1: 94934; Renilla reference signal, replicate 1: 4512; Renilla reference signal, replicate 2: 2843

Which result is listed for CG10516 [DRSC09738]?
firefly Hh reporter signal, replicate 1: 1.81e5; Renilla reference signal, replicate 1: 2164; Renilla reference signal, replicate 2: 4685

For gammaSnap1 [DRSC04686], what does the deposit list?
firefly Hh reporter signal, replicate 1: 1.49e5; firefly Hh reporter signal, replicate 2: 65100; Renilla reference signal, replicate 1: 5716; Renilla reference signal, replicate 2: 2838

For CG9393 [DRSC16486], what was measured?
firefly Hh reporter signal, replicate 1: 79040; firefly Hh reporter signal, replicate 2: 87159; Renilla reference signal, replicate 1: 3920; Renilla reference signal, replicate 2: 3690

With Nup54 [DRSC07282], what does the deposit list?
firefly Hh reporter signal, replicate 1: 1.18e5; firefly Hh reporter signal, replicate 2: 59693; Renilla reference signal, replicate 1: 4100; Renilla reference signal, replicate 2: 2393

What did the screen give for CG4646 [DRSC06876]?
firefly Hh reporter signal, replicate 1: 88125; firefly Hh reporter signal, replicate 2: 47393; Renilla reference signal, replicate 1: 2509; Renilla reference signal, replicate 2: 4166

What did the screen give for nahoda [DRSC03954]?
firefly Hh reporter signal, replicate 1: 1.47e5; firefly Hh reporter signal, replicate 2: 2.45e5; Renilla reference signal, replicate 1: 3904; Renilla reference signal, replicate 2: 11713

What did the screen give for nahoda [DRSC04126]?
firefly Hh reporter signal, replicate 1: 1.35e5; firefly Hh reporter signal, replicate 2: 78805; Renilla reference signal, replicate 1: 5578; Renilla reference signal, replicate 2: 2931

With CG15256 [DRSC01491], what does the deposit list?
firefly Hh reporter signal, replicate 1: 1.90e5; firefly Hh reporter signal, replicate 2: 3.65e5; Renilla reference signal, replicate 1: 5400; Renilla reference signal, replicate 2: 17722

Which result is listed for CG15256 [DRSC01940]?
firefly Hh reporter signal, replicate 1: 74635; firefly Hh reporter signal, replicate 2: 57785; Renilla reference signal, replicate 1: 2045; Renilla reference signal, replicate 2: 4309

Which result is listed for CG7304 [DRSC10804]?
firefly Hh reporter signal, replicate 1: 95667; Renilla reference signal, replicate 1: 3667; Renilla reference signal, replicate 2: 2833

How did the screen score CG13339 [DRSC06373]?
firefly Hh reporter signal, replicate 1: 65485; firefly Hh reporter signal, replicate 2: 62492; Renilla reference signal, replicate 1: 1584; Renilla reference signal, replicate 2: 4374

Just “Renilla reference signal, replicate 1”, for 2 of the entries above:
CG15256 [DRSC01940]: 2045
CG7304 [DRSC10804]: 3667
